Test results published in paper PMC5778047.

Key:
Experiment in all cases: pull-down; 10 µg GST-fusion protein pre-incubated with glutathione sepharose beads 16-20 h at 4 °C; lysate of transfected HEK293T cells (50 mM HEPES pH 7.3, 5 mM EDTA, 100 mM NaCl, 1% Triton X-100) added for 16-20 h at 4 °C; three washes; immunoblot with anti-GFP or anti-CIMPR; only the target purified
[1] = molecular target: T1, GST fused with the GAE region of GGA2 (human) (UniProt Q9UJY4)
T1 sequence: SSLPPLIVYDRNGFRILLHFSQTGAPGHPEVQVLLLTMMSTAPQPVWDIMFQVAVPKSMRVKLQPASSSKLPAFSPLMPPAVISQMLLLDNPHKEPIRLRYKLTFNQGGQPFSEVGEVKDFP

[2] = molecular target: T2, GST fused with the GAT region of GGA2 (human) (UniProt Q9UJY4)
T2 sequence: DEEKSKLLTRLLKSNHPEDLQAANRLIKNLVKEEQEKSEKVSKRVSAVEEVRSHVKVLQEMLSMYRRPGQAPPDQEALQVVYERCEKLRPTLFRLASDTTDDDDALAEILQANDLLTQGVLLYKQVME

[3] = molecular target: GST fused with the VHS region of GGA2 (human) (UniProt Q9UJY4)

Measured: binding

GFP-jxt (EGFR juxtamembrane region) (from UniProt P00533) (domain or fragment)
no binding: all assays above

Results are given in words; binding and its absence hold for the method and conditions named. Binding seen in cells or lysates may run through a third protein. For part of these data: Where a sequence is shown, tags or fusion partners need not be part of it.
